Taken from: PubChem BioAssay AID1259308 (NCATS, 2017)

- Test: 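Knock-downs that increase output of a recombinant reporter protein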 (primary screen)
- System: human HEK293 embryonic kidney cells stably expressing firefly luciferase (HEK-CMV-Luc2-Hygro)
- Reagent: single siRNA against human genes, 0.8 pmol siRNA per well
- Timing: 72 h
- Measurement: 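Reporter luminescence and viable-cell signal on separate replicate plates, given as percent of non-targeting control and median/MAD z-scores, plus per-cell luciferase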
- Scale: total luciferase, z-score and total luciferase, % of control: higher = more reporter protein produced
- Call rule: 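Active when the median/MAD z-score for overall luciferase is greater than 3; a gene was taken forward for validation with new siRNAs if at least two of its three siRNAs passed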
- Calls: active = raised luciferase; inactive = no rise
Shown is a random part of about 59,000 deposited reagents. About 1,510 of them (2.6%) count as active. 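Calls use total luciferase alone and ignore viability, so some active siRNAs may act by altering cell number.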 Unmarked entries are inactive. Not all columns of the deposit are shown.

Target gene | PubChem SID | total luciferase, z-score | total luciferase, % of control
ATP6V1B1 | SID160722071 | 0.481 | 91.5
ATP6V1B1 | SID160722081 | -0.446 | 73
ATP6V1B1 | SID160722092 | -0.532 | 71.3
ATP6V1G2 | SID160722197 | -0.421 | 73.5
ATP6V1G2 | SID160722207 | 0.653 | 94.9
ATP6V1G2 | SID160722217 | 0.061 | 83.1
UBR2 | SID160735959 | 0.091 | 83.7
UBR2 | SID160735960 | -0.0394 | 81.1
UBR2 | SID160735961 | 0.546 | 92.8
ANKRD23 | SID160732653 | -0.613 | 69.7
ANKRD23 | SID160760866 | 0.675 | 95.3
ANKRD23 | SID160760868 | -0.859 | 64.8
TMEM184C | SID160744261 | -0.36 | 74.7
TMEM184C | SID160744262 | -0.176 | 78.4
TMEM184C | SID160744263 | -0.636 | 69.2
SV2C | SID160734550 | 1.08 | 103
SV2C | SID160734557 | 0.0063 | 82
SV2C | SID160734568 | 1.4 | 110
ISM1 | SID160757924 | 1.38 | 109
ISM1 | SID160757925 | 1.63 | 114
ISM1 | SID160757926 | 0.429 | 90.4
IMMT | SID160729686 | -0.147 | 79
IMMT | SID160729687 | -0.708 | 67.8
IMMT | SID160729688 | -0.927 | 63.4

Ordered by “total luciferase, z-score” (descending): some entries from above
Target gene | PubChem SID | total luciferase, z-score | total luciferase, % of control
IMMT | SID160729687 | -0.708 | 67.8
IMMT | SID160729688 | -0.927 | 63.4
